Consider 8 molecules from article PMC11349648.

The chains behind the UniProt entries cited, without tags or fusion partners. Where a name states a change or a piece, a line headed by the entry shows the natural chain unless it says otherwise.
UniProt P28752: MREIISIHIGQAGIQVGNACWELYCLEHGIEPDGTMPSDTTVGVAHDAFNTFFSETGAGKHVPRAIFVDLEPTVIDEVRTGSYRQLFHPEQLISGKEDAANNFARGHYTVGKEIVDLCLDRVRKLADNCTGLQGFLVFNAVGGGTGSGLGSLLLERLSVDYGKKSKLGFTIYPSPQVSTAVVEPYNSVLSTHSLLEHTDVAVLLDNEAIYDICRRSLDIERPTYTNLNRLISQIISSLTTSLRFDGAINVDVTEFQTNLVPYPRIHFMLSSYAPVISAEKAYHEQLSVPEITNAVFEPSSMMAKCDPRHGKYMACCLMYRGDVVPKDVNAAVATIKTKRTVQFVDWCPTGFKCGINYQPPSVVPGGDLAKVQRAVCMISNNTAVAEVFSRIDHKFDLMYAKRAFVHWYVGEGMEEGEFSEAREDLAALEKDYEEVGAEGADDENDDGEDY
UniProt P12149: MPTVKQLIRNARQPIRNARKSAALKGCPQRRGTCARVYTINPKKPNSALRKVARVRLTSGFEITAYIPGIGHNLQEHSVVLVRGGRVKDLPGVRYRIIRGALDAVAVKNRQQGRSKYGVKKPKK

The target in this assay is T1, Ribosome-inactivating protein OsRIP1 (Oryza sativa) (UniProt Q9LGK6).
T1 sequence: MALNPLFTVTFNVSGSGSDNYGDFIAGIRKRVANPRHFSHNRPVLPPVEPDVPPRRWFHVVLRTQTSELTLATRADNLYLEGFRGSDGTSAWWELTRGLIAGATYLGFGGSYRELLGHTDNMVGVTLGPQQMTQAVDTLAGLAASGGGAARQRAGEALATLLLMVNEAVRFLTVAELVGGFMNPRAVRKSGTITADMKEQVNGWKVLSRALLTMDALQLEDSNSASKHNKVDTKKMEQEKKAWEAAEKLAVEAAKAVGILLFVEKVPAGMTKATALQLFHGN
Description: affinity purification with mass spectrometry; approximately 54 μg purified OsRIP1 (bait) added to 100 μg total protein extract from shoots of MeJA-treated WT rice (prey), 30 min at 4°C; captured on Ni-NTA agarose beads; one wash with binding buffer with 50 mM imidazole, three with trypsin digest buffer; on-bead trypsin digest, LC-MS/MS, MaxLFQ; control: beads with plant extract only; three replicates; FDR = 0.05 and |log2FC| = 1; only the target purified.

No constants are given. Whether binding was seen depends on the method and setting. In cells and extracts the contact can be indirect. A yes stands for co-enrichment or nearness to the bait. Other partners may have been found.

Turning to “Q2QVJ6 (NADP-dependent oxidoreductase) (from UniProt Q2QVJ6)”, the binding result is recorded as “binds”.

For the molecule “Q8W0D1 (RNA-binding protein) (from UniProt Q8W0D1)”, the binding result was “binds”.

“40S ribosomal protein S5 (Os11g0482000) (from UniProt Q2R4A1 1-199)”: the binding result is listed as “binds”.

Regarding “Tubulin alpha-1 chain, α-tubulin (from UniProt P28752 1-450)”, the binding entry is on record as “binds”.

With “Glycine-rich RNA-binding protein GRP1A (from UniProt Q2QLR2)”, the binding entry was “binds”.

In the case of “30S ribosomal protein S12 (from UniProt P12149)”, the binding entry is “binds”.

B1: 50S ribosomal protein L27 (protein, UniProt O65037 61-195)
chain: AHKKGAGSTKNGRDSPGQRLGVKIYGDQVAKPGAIIIRQRGTRVYPGNNVGMGKDHTLFSLIDGLVKFEKYGPDKKKVSVYPYEKQPENPNSYRARKREYFRMQRERKKARAEGIVEVQLVLAAADESPEVNADC
Regarding B1, the binding entry is given as “binds”.

B2: Plastid-lipid associated protein/fibrillin domain, fibrillin-like protein 2 (protein, UniProt Q6K439 55-319)
chain: AVAGDAEDEWGKEPAADQGGAAAAVAEAPADVPVTSEVAELKAKLKEALYGTERGLRASSETRAEVVELITQLEARNPTPAPTEALTLLNGKWILAYTSFSQLFPLLGSGSLPQLVKVEEISQTIDSENFTVQNCIKFSGPLATTSVSTNAKFEVRSPKRVQIKFDEGIIGTPQLTDSIVLPEKFELFGQNIDLTPLKGIFSSIENAASSVARTISGQPPLKIPIRTDNAESWLLTTYLDDELRISRGDGSSIFVLFKEGSTLLY
B2: the binding entry is recorded as “binds”.
